The values that follow come from patent US7186551B1, “3′-phosphoadenosine -5′-phosphosulfate synthetase 2 (PAPSS2) sequence variants” (Mayo Foundation for Medical Education and Research, priority 2001, dated 2007).

This data set relates to PAPSS2. Put plainly: Substrate kinetic studies of recombinant PAPSS2 with ATP and Na2SO4. It is filed as biochemical, human. Particulars: for Kinetic model, ATP: ATP varied 0.125-4 mM, Na2SO4 4 mM; for Kinetic model, Na2SO4: Na2SO4 varied 0.125-16 mM, ATP 1 mM. Here is the method: To estimate apparent Km values of PAPSS2 for the two reaction cosubstrates, a series of ATP (0.125–4 mM) and Na2SO4 (0.125–16 mM) concentrations were tested with the recombinant allozymes. When ATP was the varied substrate, the concentration of Na2SO4 was 4 mM, and when Na2SO4 was the varied substrate, the concentration of ATP was 1 mM. Blanks for each substrate concentration were included by assaying COS-1 cell cytosol after transfection with empty vector.
Data Analysis: Apparent Km values were calculated by using the method of Wilkinson with a computer program written by Cleland. Wilkinson, Biochem. J., 80:324–332 (1961); and Cleland, Nature, 198:[…] (1963). Statistical comparisons of data were performed by ANOVA with the StatView program, version 4.5 (Abacus Concepts, Inc., Berkeley, Calif.). Apparent Km, S50 and Vmax values for the wild-type and variant PAPSS2 allozymes were compared by the use of unpaired Student's t-test.
Alterations in amino acid sequence can alter enzyme substrate affinity and/or catalytic efficiency. Decreased activity of the Val291Met allozyme—without a significant alteration in level of enzyme protein—could have resulted from a change in substrate kinetics. Therefore, a series of ATP (0.125–4 mM) and Na2SO4 (0.125–16 mM) concentrations were used to estimate apparent Km values for recombinant wild type PAPSS2 and for the Val291Met variant allozyme. […] ATP concentrations at which 50% maximal velocity was achieved (S50 values) were 0.70 and 0.95 mM for the wild type and variant allozymes, respectively (Table 4). In both cases, the Hill coefficient was greater than 2, […]. In contrast, substrate kinetics of both allozymes for Na2SO4 conformed to Michaelis-Menten predictions (FIG. 5B). […] In summary, decreased activity for the Val1291Met variant appeared to result from an alteration in substrate kinetics, while decreased activity for the Glu10Lys allozyme, in contrast, resulted primarily from a decrease in the quantity of enzyme protein. Because the Val291Met variant was encoded by a construct that contained the most common PAPSS2 nonsynonymous cSNP, these observations could have functional implications for the sulfate conjugation of both endogenous and/or exogenous compounds.

B1: wild type: reference human PAPSS2 polypeptide (SEQ ID NO:9, GenBank AF091242), recombinantly expressed in COS-1 cells (protein, listed as Homo sapiens)
chain: MSGIKKQKTENQQKSTNVVYQAHHVSRNKRGQVVGTRGGFRGCTVWLTGLSGAGKTTISFALEEYLVSHAIPCYSLDGDNVRHGLNRNLGFSPGDREENIRRIAEVAKLFADAGLVCITSFISPFAKDRENARKIHESAGLPFFEIFVDAPLNICESRDVKGLYKRARAGEIKGFTGIDSDYEKPETPERVLKTNLSTVSDCVHQVVELLQEQNIVPYTIIKDIHELFVPENKLDHVRAEAETLPSLSITKLDLQWVQVLSEGWATPLKGFMREKEYLQVMHFDTLLDDGVINMSIPIVLPVSAEDKTRLEGCSKFVLAHGGRRVAILRDAEFYEHRKEERCSRVWGTTCTKHPHIKMVMESGDWLVGGDLQVLEKIRWNDGLDQYRLTPLELKQKCKEMNADAVFAFQLRNPVHNGHALLMQDTCRRLLERGYKHPVLLLHPLGGWTKDDDVPLDWRMKQHAAVLEEGVLDPKSTIVAIFPSPMLYAGPTEVQWHCRSRMIAGANFYIVGRDPAGMPHPETKKDLYEPTHGGKVLSMAPGLTSVEIIPFRVAAYNKAKKAMDFYDPARHNEFDFISGTRMRKLAREGENPPDGFMAPKAWKVLTDYYRSLEKN
As for B1, the “Kinetic model, ATP” value is recorded as “Allosteric” and the “Kinetic model, Na2SO4” value is “Michaelis-Menten”.

B2: Val291Met: PAPSS2 polypeptide allozyme having a methionine at amino acid 291 in place of valine (adenine at nucleotide 871) (protein)
chain: MSGIKKQKTENQQKSTNVVYQAHHVSRNKRGQVVGTRGGFRGCTVWLTGLSGAGKTTISFALEEYLVSHAIPCYSLDGDNVRHGLNRNLGFSPGDREENIRRIAEVAKLFADAGLVCITSFISPFAKDRENARKIHESAGLPFFEIFVDAPLNICESRDVKGLYKRARAGEIKGFTGIDSDYEKPETPERVLKTNLSTVSDCVHQVVELLQEQNIVPYTIIKDIHELFVPENKLDHVRAEAETLPSLSITKLDLQWVQVLSEGWATPLKGFMREKEYLQVMHFDTLLDDGMINMSIPIVLPVSAEDKTRLEGCSKFVLAHGGRRVAILRDAEFYEHRKEERCSRVWGTTCTKHPHIKMVMESGDWLVGGDLQVLEKIRWNDGLDQYRLTPLELKQKCKEMNADAVFAFQLRNPVHNGHALLMQDTCRRLLERGYKHPVLLLHPLGGWTKDDDVPLDWRMKQHAAVLEEGVLDPKSTIVAIFPSPMLYAGPTEVQWHCRSRMIAGANFYIVGRDPAGMPHPETKKDLYEPTHGGKVLSMAPGLTSVEIIPFRVAAYNKAKKAMDFYDPARHNEFDFISGTRMRKLAREGENPPDGFMAPKAWKVLTDYYRSLEKN
Take B2: the “Kinetic model, ATP” value is given as “Allosteric” and the “Kinetic model, Na2SO4” value is listed as “Michaelis-Menten”.
